Experimental data from article PMC6081406 (Nature Communications, 2018).
Results are given in words; binding and its absence hold for the method and conditions named. For some of these results: In cells and extracts the contact can be indirect. Some entries that bind do so weakly or less than the wild type. For some of these results: Tags and fused reporters may be left off the sequences shown. Blank lines part the entries; values can stand above or below the binder they belong to.

Tests used:
[1] = target: T1, pHluorin-tagged full-length GABAAR α2 subunit (UniProt P26048); assay: co-IP; GFP bead trap from lysates of HEK293T cells transfected with full-length CB and pHluorin-tagged α2 or α2–1; 20 mM Tris-HCl pH 8, 150 mM NaCl, 1% triton, overnight at 4 °C; western blot
T1 sequence: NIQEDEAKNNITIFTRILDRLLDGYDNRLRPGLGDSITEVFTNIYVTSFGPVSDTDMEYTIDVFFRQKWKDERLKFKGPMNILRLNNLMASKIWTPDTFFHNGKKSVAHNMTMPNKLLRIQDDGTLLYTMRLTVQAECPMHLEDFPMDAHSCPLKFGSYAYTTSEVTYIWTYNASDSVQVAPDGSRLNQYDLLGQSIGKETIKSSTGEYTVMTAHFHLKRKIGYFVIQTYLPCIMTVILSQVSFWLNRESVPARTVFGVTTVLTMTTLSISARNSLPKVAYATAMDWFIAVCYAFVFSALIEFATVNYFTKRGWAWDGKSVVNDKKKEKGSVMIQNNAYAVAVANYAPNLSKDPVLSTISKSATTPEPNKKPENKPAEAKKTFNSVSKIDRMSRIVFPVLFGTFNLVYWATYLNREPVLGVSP

[2] = target: GABAAR α2 subunit large cytoplasmic loop (AA 335-419) (UniProt P23576); assay: ITC; α2L in the presence of GephE titrated with the SH3 domain; both purified
[3] = target: GABAAR α2 subunit large cytoplasmic loop (AA 335-419) (UniProt P23576); assay: SEC; analytical size exclusion chromatography; single proteins or equimolar mixtures of the SH3 domain with α1L, α2L or α3L; fractions analysed by SDS-PAGE; both purified
[4] = target: GABAAR α2 subunit large cytoplasmic loop (AA 335-419) (UniProt P23576); assay: native gel or EMSA; native agarose gel electrophoresis (NAGE), Coomassie staining; CB-SH3 alone or mixed with a threefold excess of GABAAR intracellular domains; both purified

binding [1]: binds
B1: full-length collybistin (CB) (protein, UniProt Q3UTH8 1-516)
chain: MYDLITGDSIVSAEAVWDHVTMANRELAFKAGDVIKVLDASNKDWWWGQIDDEEGWFPASFVRLWVNQEDGVEEGPSDVQNGHLDPNSDCLCLGRPLQNRDQMRANVINEIMSTERHYIKHLKDICEGYLKQCRKRRDMFSDEQLKVIFGNIEDIYRFQMGFVRDLEKQYNNDDPHLSEIGPCFLEHQDGFWIYSEYCNNHLDACMELSKLMKDSRYQHFFEACRLLQQMIDIAIDGFLLTPVQKICKYPLQLAELLKYTAQDHSDYRYVAAALAVMRNVTQQINERKRRLENIDKIAQWQASVLDWEGEDILDRSSELIYTGEMAWIYQPYGRNQQRVFFLFDHQMVLCKKDLIRRDILYYKGRIDMDKYEVIDIEDGRDDDFNVSMKNAFKLHNKETEEVHLFFAKKLEEKIRWLRAFREERKMVQEDEKIGFEISENQKRQAAMTVRKASKQKGVNSARSVPPSYPPPQDPLNQGQYLVPDGIAQSQVFEFTEPKRSQSPFWQNFSRLTPFKK

B2: SH3 domain of collybistin (CB-SH3) (domain or fragment, murine, UniProt Q3UTH8 4-72, looked up)
chain: LITGDSIVSAEAVWDHVTMANRELAFKAGDVIKVLDASNKDWWWGQIDDEEGWFPASFVRLWVNQEDGV
notes: collybistin CB1, murine, residues 4-72, encompassing the complete SH3 domain (residues 8-67); pGEX construct provided by T. Soykan (Brose lab); source: E. coli, purified (GST tag, in-situ thrombin cleavage, Superdex 200 SEC); not shown: GST, N-terminal, cleaved
binding [2]: binds | binding [3]: binds | binding [4]: binds
